At least one compound was matched to its structure with a doubt left.
System: Chlamydia trachomatis strains 1-5
Assay: Minimum inhibitory concentration (MIC) of antibiotics, predetermined by standard procedures
Type: cell-based
Method: After infection, there was no change of media at the 4 h time point. Once in an exponential growth phase, 20 hours PI, cells were treated with a single dose of different antibiotics. […] Strains used for this treatment protocol were Strain 1) serovar D lab strain (UW-3/Cx), Strain 2) serovar L2 wild type lab strain (434/Bu), Strain 3) serovar L2 lab created mutant strain, resistant to trimethoprim, Strain 4) serovar L2 lab created mutant strain, resistant to Spectinomycin and Strain 5) serovar L2 lab created mutant strain, resistant to Rifampicin. MIC for all serovars and each antibiotic was predetermined, using standard procedures documented in literature, and listed in the table below. […] Strains 1, 2, 3 and 4 are also susceptible to rifampicin, whilst strain 5 is resistant to that same antibiotic. Samples were then incubated at 37° C. with 5% CO2 and harvested at 1 hour PT, using SPG buffer and extracted immediately. Two biological replicates were obtained for each condition.

Structure (SMILES)	Susceptibility according to the MIC analysis (Strains 1, 2, 3 and 4)	Susceptibility according to the MIC analysis (strain 5)	Susceptibility according to the MIC analysis (all strains used)
CO[C@H]1/C=C/O[C@@]2(C)Oc3c(C)c(O)c4c(O)c(c(/C=N/N5CCN(C)CC5)c(O)c4c3C2=O)NC(=O)/C(C)=C\C=C\[C@H](C)[C@H](O)[C@@H](C)[C@@H](O)[C@@H](C)[C@H](OC(C)=O)[C@@H]1C [Rifampicin]	susceptible	resistant	
C[C@H]1c2cccc(O)c2C(=O)C2=C(O)[C@]3(O)C(=O)C(C(N)=O)=C(O)[C@@H](N(C)C)[C@@H]3[C@@H](O)[C@@H]21 [Doxycycline]			susceptible

From patent US12123051B2, “Nucleic acid ratio determination” (priority 2017, dated 2024)
